{"source": "PubChem BioAssay AID1053208, Peter MacCallum Cancer Centre, 2014", "purpose": "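Synthetic lethal interactions between gene loss and doxorubicin in osteosarcoma cells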 (primary screen)", "system": "mouse osteosarcoma cells, early-passage culture from an engineered mouse model of fibroblastic bone tumour", "knock-down reagent": "siRNA pool against mouse genes, 40 nM", "timing": "about 120 h (48 h before drug, then 72 h with drug)", "conditions": "doxorubicin 100 nM for 72 h, roughly 30-40% inhibitory dose", "measured": "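Luminescent ATP signal taken as viability with or without 100 nM doxorubicin for 72 h; mean of two wells set against non-targeting siRNA and turned into robust z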", "reading the numbers": "viability z-score with doxorubicin: higher = more viable cells under doxorubicin; viability z-score without drug: higher = more viable cells with knock-down alone", "active means": "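Called active if knock-down leaves viability unchanged without drug (z within -2 to 2) but lowers it with doxorubicin (z at or under -2)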", "note": "Here is one part, drawn at random, of about 17,000 reagents tested. Over the whole deposit, 788 (4.7%) were called active. 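Calls rest on z-score classes alone; an extra cut-off of viability at most 70% of control was not applied to them.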 Not all columns of the deposit are shown."}
{"gene knocked down":"Adss1","combined z-score class":"no change with or without drug","viability z-score with doxorubicin":0.67,"viability z-score without drug":-0.84,"Call":"inactive"}
{"gene knocked down":"Rbp2","combined z-score class":"no change with or without drug","viability z-score with doxorubicin":-1.69,"viability z-score without drug":0.51,"Call":"inactive"}
{"gene knocked down":"Lpar5","combined z-score class":"no change with or without drug","viability z-score with doxorubicin":-0.22,"viability z-score without drug":0.51,"Call":"inactive"}
{"gene knocked down":"Reep6","combined z-score class":"no change with or without drug","viability z-score with doxorubicin":0.56,"viability z-score without drug":0.34,"Call":"inactive"}
{"gene knocked down":"Etos1","combined z-score class":"no change with or without drug","viability z-score with doxorubicin":-0.22,"viability z-score without drug":1.35,"Call":"inactive"}
{"gene knocked down":"Adamtsl5","combined z-score class":"no change with or without drug","viability z-score with doxorubicin":-0.45,"viability z-score without drug":-0.17,"Call":"inactive"}
{"gene knocked down":"Or4k42","combined z-score class":"no change with or without drug","viability z-score with doxorubicin":0.9,"viability z-score without drug":1.85,"Call":"inactive"}
{"gene knocked down":"Commd10","combined z-score class":"no change with or without drug","viability z-score with doxorubicin":0.45,"viability z-score without drug":0.17,"Call":"inactive"}
{"gene knocked down":"Mvp","combined z-score class":"no change with or without drug","viability z-score with doxorubicin":0,"viability z-score without drug":-0.17,"Call":"inactive"}

The list goes on, starting with the last 2 of the part before.
{"gene knocked down":"Commd10","combined z-score class":"no change with or without drug","viability z-score with doxorubicin":0.45,"viability z-score without drug":0.17,"Call":"inactive"}
{"gene knocked down":"Mvp","combined z-score class":"no change with or without drug","viability z-score with doxorubicin":0,"viability z-score without drug":-0.17,"Call":"inactive"}
{"gene knocked down":"Mlkl","combined z-score class":"no change with or without drug","viability z-score with doxorubicin":0.45,"viability z-score without drug":0,"Call":"inactive"}
{"gene knocked down":"Or5w16","combined z-score class":"no change with or without drug","viability z-score with doxorubicin":0.67,"viability z-score without drug":0.17,"Call":"inactive"}
{"gene knocked down":"Sycp1","combined z-score class":"no change with or without drug","viability z-score with doxorubicin":1.46,"viability z-score without drug":-0.51,"Call":"inactive"}
{"gene knocked down":"Nmral1","combined z-score class":"no change with or without drug","viability z-score with doxorubicin":-0.9,"viability z-score without drug":0.34,"Call":"inactive"}
{"gene knocked down":"Or2y8","combined z-score class":"low cell count without drug only","viability z-score with doxorubicin":0.34,"viability z-score without drug":-2.19,"Call":"inactive"}
{"gene knocked down":"Mc2r","combined z-score class":"no change with or without drug","viability z-score with doxorubicin":0.56,"viability z-score without drug":1.35,"Call":"inactive"}
{"gene knocked down":"Tmem128","combined z-score class":"no change with or without drug","viability z-score with doxorubicin":0.45,"viability z-score without drug":-0.84,"Call":"inactive"}
{"gene knocked down":"Tnc","combined z-score class":"no change with or without drug","viability z-score with doxorubicin":-1.24,"viability z-score without drug":-0.17,"Call":"inactive"}
{"gene knocked down":"Msra","combined z-score class":"no change with or without drug","viability z-score with doxorubicin":0.79,"viability z-score without drug":-0.34,"Call":"inactive"}
{"gene knocked down":"Tmed4","combined z-score class":"low cell count with doxorubicin only","viability z-score with doxorubicin":-2.02,"viability z-score without drug":-0.84,"Call":"active"}
{"gene knocked down":"Gk2","combined z-score class":"low cell count without drug only","viability z-score with doxorubicin":-0.67,"viability z-score without drug":-3.2,"Call":"inactive"}
{"gene knocked down":"CIPP","combined z-score class":"no change with or without drug","viability z-score with doxorubicin":-0.67,"viability z-score without drug":-0.34,"Call":"inactive"}
{"gene knocked down":"Catsper2","combined z-score class":"high cell count without drug only","viability z-score with doxorubicin":0.56,"viability z-score without drug":2.36,"Call":"inactive"}
{"gene knocked down":"Zfp641","combined z-score class":"no change with or without drug","viability z-score with doxorubicin":-0.45,"viability z-score without drug":0.51,"Call":"inactive"}
{"gene knocked down":"Ptger4","combined z-score class":"no change with or without drug","viability z-score with doxorubicin":0.56,"viability z-score without drug":-0.67,"Call":"inactive"}
{"gene knocked down":"Usp33","combined z-score class":"no change with or without drug","viability z-score with doxorubicin":-0.22,"viability z-score without drug":0.34,"Call":"inactive"}
{"gene knocked down":"Vmn1r41","combined z-score class":"no change with or without drug","viability z-score with doxorubicin":1.12,"viability z-score without drug":1.85,"Call":"inactive"}
{"gene knocked down":"Cct7","combined z-score class":"low cell count without drug only","viability z-score with doxorubicin":-0.45,"viability z-score without drug":-2.02,"Call":"inactive"}
{"gene knocked down":"Csprs","combined z-score class":"low cell count with doxorubicin only","viability z-score with doxorubicin":-2.02,"viability z-score without drug":0.17,"Call":"active"}
